The series deals with T1, His6-AdiY (Escherichia coli K-12 MG1655) (UniProt P33234).
T1 sequence (looked up): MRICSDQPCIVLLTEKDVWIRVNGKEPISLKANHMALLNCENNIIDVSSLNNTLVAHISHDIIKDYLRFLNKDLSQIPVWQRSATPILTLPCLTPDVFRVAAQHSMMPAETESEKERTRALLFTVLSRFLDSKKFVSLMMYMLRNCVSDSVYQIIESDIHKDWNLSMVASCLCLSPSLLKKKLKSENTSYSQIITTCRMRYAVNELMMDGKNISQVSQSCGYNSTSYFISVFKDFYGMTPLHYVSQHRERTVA
Nature of the series: SPR. To be noted: pH 6.5, phosphate; SPR (Biacore T200, SA chip), 25 C, 50 mM sodium phosphate pH 6.0-7.0 (50 mM citrate at pH 5.5 and 5.8), 250 mM NaCl, 2% glycerol, 2 mM DTT, 0.005% P20; 1:1 Langmuir fit; recombinant protein; residues 1-253; protein details: N-terminal His6; label: biotin (5' of reverse primer); probe letters rebuilt from the primers and the genome.

For at least one entry, the source does not settle the construct or the ends of the probe. A weaker result is weaker than the reference pair of the same experiment. Where a protein sequence is shown, tags need not be part of it.

With “TCTACGGTATGACGCCGCTGCATTATGTTAGTCAGCACAGAGAACGCACTGTCGCCTGATTTTTAACCTTAACGAAGAGCTATATTAATAACGGCATCAGCGATAACCCGGTCGATAATAATTCAACTATCGAATGCAGGCGTATGATATGACGTAATTTATTGTCACGAAGCTCGCCTTCGCAGGAGTTTAATT (double strand) [PadiC (adiC promoter)]”, the binding result is “binds more weakly”.

On to “TGCTTACCCGGTTATGAAGGAATCTTCGTTGCGGGCAAGTATCTTCCGGCCTTTTCGGGCTGTAAAGCGCGTGAAAAACAAACATTTTTGAAATATTTAGTTTTATAAACAATACGTTATGTGATTATTTTAAATTATTTTCACTGCTTATTATCGACGGCTAAACTATTTTTTTGGCTGATACTGATATCGTCT (double strand) [PadiA (adiA promoter)]”, for which the binding result is on record as “binds more weakly”.

The values are drawn from publication PMC12826058.
